Data published in the supplement of paper PMC7666118.
The other results are listed elsewhere or left out.

By UniProt entry, the sequences of proteins in these tests, tags left out. Where a name states a change or a piece, a line headed by the entry shows the natural chain unless it says otherwise.
UniProt O14979: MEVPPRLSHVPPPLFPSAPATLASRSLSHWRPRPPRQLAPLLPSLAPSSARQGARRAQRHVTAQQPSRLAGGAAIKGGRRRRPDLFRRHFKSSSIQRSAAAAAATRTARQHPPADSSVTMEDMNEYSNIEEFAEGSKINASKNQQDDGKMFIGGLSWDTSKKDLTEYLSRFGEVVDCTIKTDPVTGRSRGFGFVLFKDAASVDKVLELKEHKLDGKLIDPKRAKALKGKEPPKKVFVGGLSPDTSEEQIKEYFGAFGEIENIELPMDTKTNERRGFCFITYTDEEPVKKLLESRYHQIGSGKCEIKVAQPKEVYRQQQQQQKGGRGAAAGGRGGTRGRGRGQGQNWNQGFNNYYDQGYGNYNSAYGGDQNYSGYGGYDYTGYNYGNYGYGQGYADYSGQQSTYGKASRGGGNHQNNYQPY
UniProt Q96EW2: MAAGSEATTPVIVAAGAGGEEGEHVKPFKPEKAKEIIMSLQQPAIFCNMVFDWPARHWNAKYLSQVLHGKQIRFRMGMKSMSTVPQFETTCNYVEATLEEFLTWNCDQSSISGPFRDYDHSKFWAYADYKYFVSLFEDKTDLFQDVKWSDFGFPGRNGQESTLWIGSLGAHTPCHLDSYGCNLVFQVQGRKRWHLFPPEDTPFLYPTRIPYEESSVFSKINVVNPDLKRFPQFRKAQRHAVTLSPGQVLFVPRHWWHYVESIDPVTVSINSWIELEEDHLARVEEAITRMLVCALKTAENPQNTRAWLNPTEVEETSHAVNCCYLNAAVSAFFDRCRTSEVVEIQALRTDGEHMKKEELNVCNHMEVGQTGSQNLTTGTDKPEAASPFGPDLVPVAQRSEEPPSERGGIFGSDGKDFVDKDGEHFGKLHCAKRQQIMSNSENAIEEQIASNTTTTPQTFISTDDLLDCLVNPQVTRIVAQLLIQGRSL
UniProt P23458: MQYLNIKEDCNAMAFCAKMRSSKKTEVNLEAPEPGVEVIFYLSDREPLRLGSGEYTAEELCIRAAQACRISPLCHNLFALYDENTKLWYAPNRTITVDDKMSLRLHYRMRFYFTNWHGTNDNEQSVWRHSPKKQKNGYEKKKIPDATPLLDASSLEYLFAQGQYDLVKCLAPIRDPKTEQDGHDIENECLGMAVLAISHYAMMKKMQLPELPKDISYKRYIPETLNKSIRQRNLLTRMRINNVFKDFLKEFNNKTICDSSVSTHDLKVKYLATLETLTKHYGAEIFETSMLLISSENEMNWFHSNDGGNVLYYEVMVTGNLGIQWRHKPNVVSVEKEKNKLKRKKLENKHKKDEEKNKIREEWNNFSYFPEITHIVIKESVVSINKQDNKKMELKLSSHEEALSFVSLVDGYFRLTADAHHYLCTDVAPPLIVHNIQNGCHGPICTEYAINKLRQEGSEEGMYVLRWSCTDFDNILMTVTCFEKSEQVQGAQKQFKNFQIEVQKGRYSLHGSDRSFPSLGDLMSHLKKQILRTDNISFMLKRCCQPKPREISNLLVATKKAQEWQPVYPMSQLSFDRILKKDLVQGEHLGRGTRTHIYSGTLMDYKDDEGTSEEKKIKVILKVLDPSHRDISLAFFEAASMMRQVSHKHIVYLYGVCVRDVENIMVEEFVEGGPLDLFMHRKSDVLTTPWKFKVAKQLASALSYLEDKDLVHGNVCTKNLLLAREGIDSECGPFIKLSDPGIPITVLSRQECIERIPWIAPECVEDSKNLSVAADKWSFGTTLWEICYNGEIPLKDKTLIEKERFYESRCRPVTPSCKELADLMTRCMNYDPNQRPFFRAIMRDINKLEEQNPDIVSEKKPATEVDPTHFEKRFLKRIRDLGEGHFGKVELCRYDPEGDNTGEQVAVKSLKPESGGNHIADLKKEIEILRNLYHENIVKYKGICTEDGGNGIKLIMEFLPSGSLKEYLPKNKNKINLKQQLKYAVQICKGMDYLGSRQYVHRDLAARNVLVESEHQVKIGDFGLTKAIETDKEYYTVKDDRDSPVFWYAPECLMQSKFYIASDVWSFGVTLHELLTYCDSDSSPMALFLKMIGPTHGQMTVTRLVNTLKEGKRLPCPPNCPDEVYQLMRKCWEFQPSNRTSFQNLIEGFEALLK
UniProt P17275: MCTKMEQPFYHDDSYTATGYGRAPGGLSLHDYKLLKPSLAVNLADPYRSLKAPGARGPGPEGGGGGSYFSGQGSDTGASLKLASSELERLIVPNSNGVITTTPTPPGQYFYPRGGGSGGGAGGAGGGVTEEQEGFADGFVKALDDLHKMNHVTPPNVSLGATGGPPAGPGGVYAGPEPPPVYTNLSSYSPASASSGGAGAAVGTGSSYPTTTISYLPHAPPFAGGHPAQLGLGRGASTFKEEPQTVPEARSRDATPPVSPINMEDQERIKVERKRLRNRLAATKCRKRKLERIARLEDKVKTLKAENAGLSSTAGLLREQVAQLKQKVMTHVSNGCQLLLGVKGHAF
UniProt Q5SSJ5: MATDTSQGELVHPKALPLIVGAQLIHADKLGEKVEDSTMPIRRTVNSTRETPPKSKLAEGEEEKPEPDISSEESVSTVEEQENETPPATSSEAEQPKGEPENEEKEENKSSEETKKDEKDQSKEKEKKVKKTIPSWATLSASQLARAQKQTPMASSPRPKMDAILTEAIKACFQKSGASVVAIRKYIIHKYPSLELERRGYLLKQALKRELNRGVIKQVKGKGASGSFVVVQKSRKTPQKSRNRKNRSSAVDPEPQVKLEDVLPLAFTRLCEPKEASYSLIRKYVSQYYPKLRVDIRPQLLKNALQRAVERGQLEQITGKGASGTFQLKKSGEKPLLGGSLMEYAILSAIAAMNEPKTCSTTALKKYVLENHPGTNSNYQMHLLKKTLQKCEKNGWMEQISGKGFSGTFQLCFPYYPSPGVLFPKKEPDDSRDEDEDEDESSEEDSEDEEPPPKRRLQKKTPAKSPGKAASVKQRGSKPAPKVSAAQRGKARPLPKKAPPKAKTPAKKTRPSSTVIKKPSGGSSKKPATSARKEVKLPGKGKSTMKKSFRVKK
UniProt P17535: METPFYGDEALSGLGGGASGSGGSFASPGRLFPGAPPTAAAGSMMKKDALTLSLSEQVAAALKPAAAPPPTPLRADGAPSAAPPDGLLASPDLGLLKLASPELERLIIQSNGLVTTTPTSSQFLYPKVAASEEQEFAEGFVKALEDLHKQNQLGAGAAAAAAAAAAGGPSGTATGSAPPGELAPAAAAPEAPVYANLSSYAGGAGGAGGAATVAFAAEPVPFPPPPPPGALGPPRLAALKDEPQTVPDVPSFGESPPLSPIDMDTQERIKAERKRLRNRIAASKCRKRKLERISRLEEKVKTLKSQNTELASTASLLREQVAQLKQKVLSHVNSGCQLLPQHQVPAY
UniProt O43464: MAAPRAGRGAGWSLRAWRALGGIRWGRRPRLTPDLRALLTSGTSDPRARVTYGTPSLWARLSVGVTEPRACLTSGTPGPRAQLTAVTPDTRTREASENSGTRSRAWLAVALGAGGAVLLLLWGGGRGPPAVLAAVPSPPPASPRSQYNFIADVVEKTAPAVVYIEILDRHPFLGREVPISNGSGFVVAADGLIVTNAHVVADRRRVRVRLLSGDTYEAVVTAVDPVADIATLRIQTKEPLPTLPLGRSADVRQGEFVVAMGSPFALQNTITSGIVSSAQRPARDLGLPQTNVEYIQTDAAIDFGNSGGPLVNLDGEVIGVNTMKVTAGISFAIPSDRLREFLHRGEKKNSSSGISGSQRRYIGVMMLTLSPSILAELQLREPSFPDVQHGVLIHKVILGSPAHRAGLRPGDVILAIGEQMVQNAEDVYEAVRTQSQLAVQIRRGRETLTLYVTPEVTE
UniProt O00425, whole entry: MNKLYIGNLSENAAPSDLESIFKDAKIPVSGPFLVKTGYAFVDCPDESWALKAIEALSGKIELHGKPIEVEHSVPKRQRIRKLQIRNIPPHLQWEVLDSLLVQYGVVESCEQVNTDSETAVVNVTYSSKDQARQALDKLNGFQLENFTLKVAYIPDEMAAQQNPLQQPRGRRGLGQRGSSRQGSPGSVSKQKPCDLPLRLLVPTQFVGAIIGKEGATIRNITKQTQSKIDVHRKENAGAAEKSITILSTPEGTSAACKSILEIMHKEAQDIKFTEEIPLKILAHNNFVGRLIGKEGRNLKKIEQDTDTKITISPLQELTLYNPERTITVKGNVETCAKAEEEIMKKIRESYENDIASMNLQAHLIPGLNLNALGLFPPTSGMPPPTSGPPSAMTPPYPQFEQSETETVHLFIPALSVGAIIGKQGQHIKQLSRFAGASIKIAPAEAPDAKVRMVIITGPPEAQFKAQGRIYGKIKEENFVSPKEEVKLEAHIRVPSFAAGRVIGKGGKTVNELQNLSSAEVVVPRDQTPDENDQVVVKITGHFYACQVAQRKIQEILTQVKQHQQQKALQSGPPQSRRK
UniProt Q9UKS7: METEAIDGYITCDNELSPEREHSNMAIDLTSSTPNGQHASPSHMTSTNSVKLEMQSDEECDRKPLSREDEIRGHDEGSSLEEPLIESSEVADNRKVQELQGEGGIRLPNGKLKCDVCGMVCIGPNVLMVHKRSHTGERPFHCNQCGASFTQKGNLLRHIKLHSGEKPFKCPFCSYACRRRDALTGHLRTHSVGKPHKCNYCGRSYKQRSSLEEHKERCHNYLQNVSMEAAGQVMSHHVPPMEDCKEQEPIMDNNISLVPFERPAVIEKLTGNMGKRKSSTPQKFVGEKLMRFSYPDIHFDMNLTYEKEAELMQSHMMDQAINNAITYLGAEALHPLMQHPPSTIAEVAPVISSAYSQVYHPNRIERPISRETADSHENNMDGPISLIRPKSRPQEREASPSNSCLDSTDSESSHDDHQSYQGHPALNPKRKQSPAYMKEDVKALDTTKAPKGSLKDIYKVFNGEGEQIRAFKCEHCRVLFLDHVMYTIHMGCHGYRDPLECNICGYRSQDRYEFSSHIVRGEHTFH
UniProt Q96CX2: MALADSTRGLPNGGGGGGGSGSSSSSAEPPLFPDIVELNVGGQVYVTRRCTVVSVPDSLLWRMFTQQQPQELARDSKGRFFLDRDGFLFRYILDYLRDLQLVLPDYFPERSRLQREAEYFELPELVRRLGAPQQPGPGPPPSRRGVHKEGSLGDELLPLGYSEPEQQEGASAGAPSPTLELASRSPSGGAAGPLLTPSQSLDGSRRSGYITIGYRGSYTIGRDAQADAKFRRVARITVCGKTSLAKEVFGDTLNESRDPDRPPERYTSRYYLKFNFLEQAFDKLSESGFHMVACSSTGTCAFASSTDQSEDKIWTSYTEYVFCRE
UniProt Q9Y4C1: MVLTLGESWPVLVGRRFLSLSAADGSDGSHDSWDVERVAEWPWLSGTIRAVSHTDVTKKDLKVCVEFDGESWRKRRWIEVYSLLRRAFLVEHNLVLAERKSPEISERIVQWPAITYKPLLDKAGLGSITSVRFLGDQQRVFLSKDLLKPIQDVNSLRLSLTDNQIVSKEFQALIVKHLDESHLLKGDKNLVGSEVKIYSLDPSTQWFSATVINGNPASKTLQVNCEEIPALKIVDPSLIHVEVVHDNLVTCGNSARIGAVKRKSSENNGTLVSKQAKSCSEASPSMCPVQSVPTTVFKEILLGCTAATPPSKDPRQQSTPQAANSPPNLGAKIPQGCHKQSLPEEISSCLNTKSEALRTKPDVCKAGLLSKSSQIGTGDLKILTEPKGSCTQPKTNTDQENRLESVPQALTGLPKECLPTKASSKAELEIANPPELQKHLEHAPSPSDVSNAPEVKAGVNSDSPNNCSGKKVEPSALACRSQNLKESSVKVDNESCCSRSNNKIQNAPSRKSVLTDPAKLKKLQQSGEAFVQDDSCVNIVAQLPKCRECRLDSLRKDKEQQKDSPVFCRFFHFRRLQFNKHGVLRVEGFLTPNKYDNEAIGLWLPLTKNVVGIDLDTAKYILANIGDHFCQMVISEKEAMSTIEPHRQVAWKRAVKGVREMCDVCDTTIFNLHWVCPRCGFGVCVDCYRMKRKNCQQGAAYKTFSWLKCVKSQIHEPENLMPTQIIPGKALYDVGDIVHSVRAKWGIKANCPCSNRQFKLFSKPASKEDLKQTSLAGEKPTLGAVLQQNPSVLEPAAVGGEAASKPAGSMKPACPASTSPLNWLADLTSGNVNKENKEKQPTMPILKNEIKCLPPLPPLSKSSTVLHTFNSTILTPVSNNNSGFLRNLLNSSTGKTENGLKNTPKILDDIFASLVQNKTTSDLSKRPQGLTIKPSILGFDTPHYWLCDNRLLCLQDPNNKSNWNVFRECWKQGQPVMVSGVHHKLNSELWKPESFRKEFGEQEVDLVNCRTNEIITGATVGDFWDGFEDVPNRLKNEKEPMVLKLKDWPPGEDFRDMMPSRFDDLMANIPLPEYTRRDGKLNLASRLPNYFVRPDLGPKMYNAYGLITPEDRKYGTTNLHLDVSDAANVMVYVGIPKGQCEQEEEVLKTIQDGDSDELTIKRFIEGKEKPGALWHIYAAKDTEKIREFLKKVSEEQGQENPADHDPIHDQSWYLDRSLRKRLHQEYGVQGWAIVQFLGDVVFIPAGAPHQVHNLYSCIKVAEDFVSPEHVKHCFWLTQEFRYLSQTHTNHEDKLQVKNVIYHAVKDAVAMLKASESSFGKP

Compound: COc1ccc(Cn2ccc3ccc(C(=O)NO)cc32)cc1
Assay: dose-dependent thermal stabilisation call (2D-TPP, DLPTP, 10% FDR) (binary (1 = stabilised)); higher = stabilised by the compound
Settings: system: HL-60 intact cells; concentration range 0.04-10 µM

Target | dose-dependent thermal stabilisation call
HNRPDL (UniProt O14979) | inactive: 0
HSPBAP1 (UniProt Q96EW2) | inactive: 0
IRF2 (UniProt P14316) | inactive: 0
JAK1 (UniProt P23458) | inactive: 0
HPS5 (UniProt Q9UPZ3) | inactive: 0
HSF1 (UniProt Q00613) | inactive: 0
INPPL1 (UniProt O15357) | inactive: 0
IGF2R (UniProt P11717) | inactive: 0
JUNB (UniProt P17275) | inactive: 0
IKBKG (UniProt Q9Y6K9) | inactive: 0
IMPA2 (UniProt O14732) | inactive: 0
JAGN1 (UniProt Q8N5M9) | inactive: 0
ILF2 (UniProt Q12905) | inactive: 0
HP1BP3 (UniProt Q5SSJ5) | inactive: 0
HNRNPK (UniProt P61978) | inactive: 0
JUND (UniProt P17535) | inactive: 0
IVD (UniProt P26440) | inactive: 0
KAT5 (UniProt Q92993) | inactive: 0
HOOK3 (UniProt Q86VS8) | inactive: 0

Target | dose-dependent thermal stabilisation call
KCTD6 (UniProt Q8NC69) | inactive: 0
HSPB11 (UniProt Q9Y547) | inactive: 0
HSD17B7 (UniProt P56937) | inactive: 0
JMJD1B (UniProt Q7LBC6) | inactive: 0
IGHMBP2 (UniProt P38935) | inactive: 0
HTRA2 (UniProt O43464) | inactive: 0
IGF2BP3 (UniProt O00425) | inactive: 0
IKZF2 (UniProt Q9UKS7) | inactive: 0
HUS1 (UniProt O60921) | inactive: 0
KCTD12 (UniProt Q96CX2) | inactive: 0
ISG15 (UniProt P05161) | inactive: 0
IL18 (UniProt Q14116) | inactive: 0
KIAA0101 (UniProt Q15004) | inactive: 0
INPP5A (UniProt Q14642) | inactive: 0
KIAA0494 (UniProt O75071) | inactive: 0
JMJD1A (UniProt Q9Y4C1) | inactive: 0
KCNQ5 (UniProt Q9NR82) | inactive: 0
HSPA4 (UniProt P34932) | inactive: 0

As entered above:
KCNQ5 (UniProt Q9NR82) | dose-dependent thermal stabilisation call: inactive: 0
JMJD1A (UniProt Q9Y4C1) | dose-dependent thermal stabilisation call: inactive: 0
